Test results as given in patent US20230073125A1, “PERIODONTAL MICROPATCH AND USES THEREOF” (priority 2019, published 2023).
For part of these data: For at least one compound, name, drawing or mass did not settle the structure. Some results were stated once for a whole list of compounds, not compound by compound.

Columns and labels:
[1] = Cytokine loading and release from microparticles/microneedles in artificial saliva, ELISA; format: physicochemical
From the text: For high quality periodontal treatment, the periodontal patch should act as an immunomodulator by delivering small molecules drugs and/or bioactive molecules to control infection (e.g., with antibiotics), modulate inflammation (e.g., FIG. 11A) and induce the recovery of alveolar bone. Here we used same method as described in Approach 1 to fabricate microneedles (FIG. 10A). IL-4- or TGF-β-loaded silica-heparin microparticles mixed with polymer (e.g., alginate) solution and cast into the molds to generate the microneedle patches. […] At selected time intervals (every 12 hour), the medium was collected and analyzed for released proteins using ELISA Kits. At the end of release study, the remaining proteins extracted from the particles/needles by dissolving them and the percentage of cumulative released proteins measured according to methods explained before. The released percentage measured based on the ratio of the amount released at each time point to the amount that was initially loaded. […]
The microneedle chemical formulation can be further modified for co-encapsulation of both small molecule antibiotics (encapsulated in PLGA NPs) and cytokines (encapsulated in alginate-heparin microparticles), which was integrated and addressed in Aim 3. […] At selected time intervals (every 12 hours), media was collected and analyzed for released proteins using ELISA. […]

[2] = 25 kGy (2.5 Mrads); cited from earlier work

Compound	cytokine per patch [1] [ng]	cytokine that can be loaded per needle [1] [pg]	effect of 25 kGy sterilization dose on tetracycline properties [2]
transforming growth factor beta [TGF-β]	5 to 100	50 to 1000	
CN(C)[C@@H]1C(O)=C(C(N)=O)C(=O)[C@@]2(O)C(O)=C3C(=O)c4c(O)cccc4[C@@](C)(O)[C@H]3C[C@@H]12 [tetracycline]			does not alter
